Measured values taken from patent US12209086B2, “FGFR3 inhibitor compounds” (ELI LILLY AND COMPANY, priority 2021, dated 2025).
Some entries share one result that the patent states for a list of compounds. At least one structure is not confirmed: it was looked up by name or label, or the drawing left a doubt.

Chains of the proteins cited; added tags and fusions are not shown. Residues count along the entry.
UniProt P22607, 23-806: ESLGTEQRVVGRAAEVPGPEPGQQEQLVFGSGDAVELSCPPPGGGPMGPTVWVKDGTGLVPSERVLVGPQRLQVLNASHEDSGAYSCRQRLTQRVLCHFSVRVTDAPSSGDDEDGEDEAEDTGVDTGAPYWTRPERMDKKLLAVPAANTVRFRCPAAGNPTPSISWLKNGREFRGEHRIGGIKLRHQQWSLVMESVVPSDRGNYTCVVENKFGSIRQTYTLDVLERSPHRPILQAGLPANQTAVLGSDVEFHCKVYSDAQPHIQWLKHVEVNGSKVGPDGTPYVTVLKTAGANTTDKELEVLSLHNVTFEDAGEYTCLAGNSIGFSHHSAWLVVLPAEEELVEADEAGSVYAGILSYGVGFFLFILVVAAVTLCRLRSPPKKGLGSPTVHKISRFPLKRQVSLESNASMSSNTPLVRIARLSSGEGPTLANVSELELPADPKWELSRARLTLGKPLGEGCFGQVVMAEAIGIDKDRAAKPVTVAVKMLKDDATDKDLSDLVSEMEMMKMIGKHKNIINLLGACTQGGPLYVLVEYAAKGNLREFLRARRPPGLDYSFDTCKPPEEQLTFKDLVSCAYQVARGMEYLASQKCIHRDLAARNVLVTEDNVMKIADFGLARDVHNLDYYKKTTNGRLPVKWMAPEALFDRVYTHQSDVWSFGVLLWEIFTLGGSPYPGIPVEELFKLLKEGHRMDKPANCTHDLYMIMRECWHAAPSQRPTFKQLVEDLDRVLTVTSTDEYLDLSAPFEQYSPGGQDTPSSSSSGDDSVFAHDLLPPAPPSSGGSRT

Target: T1, FGFR3 protein (Homo sapiens, UniProt P22607)
T1 construct: purchased Reaction Biology 1068
Experiment: FGFR3 enzyme assay (KinEASE-TK HTRF kinase assay)
Assay type: biochemical
Conditions: 0.25 nM enzyme, ATP at Km, 15 min pre-incubation on ice, 30 min at 30° C.
Experimental: FGFR3 and FGFR1 Enzyme Assay
Enzyme activity was monitored using the KinEASE™-TK Assay Kit (Cisflio, Cat. No. 62TK0PEC) according to the manufacturer's instructions. All assays were performed at the respective KmATP for each kinase in KinEASE™ Kinase Buffer.
Titration of compounds were performed in a half-log manner in 100% dimethyl sulfoxide (DMSO) starting at 1 uM. Prior to the initiation of the reaction by adenosine triphosphate (ATP), FGFR1 protein and compounds were pre-incubated for 15 minutes at room temperature, and FGFR3 protein and compounds were pre-incubated on ice for 15 minutes. Reactions proceeded for 30 min at 30° C. Plates were quenched by the addition of the Anti-TK cryptate antibody/Streptavidin-XL665 mixture.
Ratios were converted to a percent of control (POC) using a ratiometric emission factor. One hundred POC was determined using no test compound, and 0 POC was determined in the presence of 1 uM of an appropriate control inhibitor.

COC1(C(Oc2cc(-c3nnn(C4CCN(C#N)CC4)c3C)cc3ncc(C#N)n23)c2ccc(F)cn2)CC1 (stereo not shown) [Example 166, 7-[1-(1-Cyano-4-piperidyl)-5-methyl-triazol-4-yl]-5-[(5-fluoro-2-pyridyl)-(1-methoxycyclopropyl)methoxy]imidazo[1,2-a]pyridine-3-carbonitrile]
IC50: < 350 nM
